Measurements reported in article PMC4330389, “Domain organization within the nuclear export factor Mex67:Mtr2 generates an extended mRNA binding surface”.

Test system: Mex67 (full length):Mtr2 + Mtr2
Assay: fluorescence anisotropy
Conditions: 20 mM Tris pH 8.0, 50 mM NaCl, 10 nM DY-547 RNA; temperature not stated; recombinant protein; protein details: His6 removed by TEV

## CCCCCCCCCCCCCCC [C15]
  binding result: binds more weakly

## UUUUUUUUUUUUUUU [U15]
  binding result: binds more weakly

Construct, isoform or probe ends are uncertain for at least one entry. A weaker result is weaker than the reference pair of the same experiment.
